No constants are given. Whether binding was seen depends on the method and setting. Some binding calls cover weakened binding; strength is not graded here.
Target: T1, phosphofructokinase beta subunit Pfk2p (S. cerevisiae) (UniProt P16862)
T1 sequence: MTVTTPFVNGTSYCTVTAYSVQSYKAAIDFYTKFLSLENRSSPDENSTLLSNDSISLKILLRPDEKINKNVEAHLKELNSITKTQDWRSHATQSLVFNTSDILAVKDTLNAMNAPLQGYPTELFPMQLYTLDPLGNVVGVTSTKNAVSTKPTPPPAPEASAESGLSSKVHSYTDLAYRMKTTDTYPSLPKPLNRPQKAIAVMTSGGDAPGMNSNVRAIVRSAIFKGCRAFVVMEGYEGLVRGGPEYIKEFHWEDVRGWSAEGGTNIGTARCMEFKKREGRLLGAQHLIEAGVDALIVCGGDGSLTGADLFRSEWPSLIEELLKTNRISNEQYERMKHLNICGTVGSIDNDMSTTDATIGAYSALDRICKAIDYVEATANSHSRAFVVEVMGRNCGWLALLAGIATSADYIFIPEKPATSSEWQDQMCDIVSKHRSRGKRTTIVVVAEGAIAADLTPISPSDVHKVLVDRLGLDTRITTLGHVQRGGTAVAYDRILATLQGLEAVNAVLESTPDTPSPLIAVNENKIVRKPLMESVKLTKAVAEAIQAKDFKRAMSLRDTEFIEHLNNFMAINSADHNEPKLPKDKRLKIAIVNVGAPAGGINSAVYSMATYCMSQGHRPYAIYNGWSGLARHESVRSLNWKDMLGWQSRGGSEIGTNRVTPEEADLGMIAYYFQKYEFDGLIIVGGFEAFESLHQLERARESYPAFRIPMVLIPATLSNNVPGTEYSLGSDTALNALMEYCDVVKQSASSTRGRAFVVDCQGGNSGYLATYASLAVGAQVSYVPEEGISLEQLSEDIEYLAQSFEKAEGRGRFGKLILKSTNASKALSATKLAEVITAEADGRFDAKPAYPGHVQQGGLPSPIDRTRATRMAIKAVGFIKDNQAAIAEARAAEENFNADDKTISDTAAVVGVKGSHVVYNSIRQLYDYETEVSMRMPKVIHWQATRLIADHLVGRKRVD
Test: co-purification; PFK1 and PFK2 co-expressed in S. cerevisiae; protein products co-purified from the Yeast TAP-Tagged collection

- binding: binds
B1: phosphofructokinase alpha subunit Pfk1p (enzyme, UniProt P16861 1-987)
chain: MQSQDSCYGVAFRSIITNDEALFKKTIHFYHTLGFATVKDFNKFKHGENSLLSSGTSQDSLREVWLESFKLSEVDASGFRIPQQEATNKAQSQGALLKIRLVMSAPIDETFDTNETATITYFSTDLNKIVEKFPKQAEKLSDTLVFLKDPMGNNITFSGLANATDSAPTSKDAFLEATSEDEIISRASSDASDLLRQTLGSSQKKKKIAVMTSGGDSPGMNAAVRAVVRTGIHFGCDVFAVYEGYEGLLRGGKYLKKMAWEDVRGWLSEGGTLIGTARSMEFRKREGRRQAAGNLISQGIDALVVCGGDGSLTGADLFRHEWPSLVDELVAEGRFTKEEVAPYKNLSIVGLVGSIDNDMSGTDSTIGAYSALERICEMVDYIDATAKSHSRAFVVEVMGRHCGWLALMAGIATGADYIFIPERAVPHGKWQDELKEVCQRHRSKGRRNNTIIVAEGALDDQLNPVTANDVKDALIELGLDTKVTILGHVQRGGTAVAHDRWLATLQGVDAVKAVLEFTPETPSPLIGILENKIIRMPLVESVKLTKSVATAIENKDFDKAISLRDTEFIELYENFLSTTVKDDGSELLPVSDRLNIGIVHVGAPSAALNAATRAATLYCLSHGHKPYAIMNGFSGLIQTGEVKELSWIDVENWHNLGGSEIGTNRSVASEDLGTIAYYFQKNKLDGLIILGGFEGFRSLKQLRDGRTQHPIFNIPMCLIPATVSNNVPGTEYSLGVDTCLNALVNYTDDIKQSASATRRRVFVCEVQGGHSGYIASFTGLITGAVSVYTPEKKIDLASIREDITLLKENFRHDKGENRNGKLLVRNEQASSVYSTQLLADIISEASKGKFGVRTAIPGHVQQGGVPSSKDRVTASRFAVKCIKFIEQWNKKNEASPNTDAKVLRFKFDTHGEKVPTVEHEDDSAAVICVNGSHVSFKPIANLWENETNVELRKGFEVHWAEYNKIGDILSGRLKLRAEVAALAAENK
